Record: PubChem BioAssay AID504786 (Drosophila RNAi Screening Center, 2011)

- Assay: 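Fly genes required for HIF-dependent transcription when hypoxia is mimicked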 (primary screen)
- System: Drosophila S2 cells with a stable HIF luciferase reporter
- Knock-down reagent: long dsRNA against Drosophila genes, about 0.2 µg dsRNA per well of a 384-well plate
- Time to read-out: three days of knock-down, then 20 h of DFO before reading
- Conditions: desferrioxamine (DFO) at 100 µM, an iron chelator that mimics hypoxia, for 20 h
- Read-out: 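Firefly luciferase driven by the mouse ldh-a hypoxia-response element, measured after 20 h of 100 µM DFO; z-scores per plate, higher means more signal lost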
- Scale: z-score: higher = stronger loss of HIF reporter signal
In all, the deposit lists about 21,000 reagents; shown is a random part of those that have a named target and a result. 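Primary screen; positive scores mean lost reporter signal, so the sign may be inverted from the usual convention.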 No sequences are given here.

nrv2 (nervana 2) [DRSC00948] gave z-score, replicate 1 = -0.5; z-score, replicate 2 = -0.3.
Knock-down of nrv2 (nervana 2) [DRSC03383] gave: z-score, replicate 1 = -0.2; z-score, replicate 2 = 0.
Jon65Aii (Jonah 65Aii) [DRSC10665] showed z-score, replicate 1 = -0.4; z-score, replicate 2 = -0.6.
ND1 (retired record) [DRSC21273] scored z-score, replicate 1 = -0.1; z-score, replicate 2 = -0.4.
Against PNPase (Polynucleotide phosphorylase) [DRSC14304], the values are z-score, replicate 1 = -0.3; z-score, replicate 2 = 0.1.
Against Nep4 (Neprilysin 4) [DRSC15539], the values are z-score, replicate 1 = -0.2; z-score, replicate 2 = -0.4.
After knock-down of skl (sickle) [DRSC10050] the results were z-score, replicate 1 = -0.3; z-score, replicate 2 = -0.2.
Depletion of Cap-D2 (CAP-D2 condensin subunit) [DRSC15401] gave: z-score, replicate 1 = -0.4; z-score, replicate 2 = -0.3.
CR30029 (pseudo) [DRSC06724] showed z-score, replicate 1 = -0.2; z-score, replicate 2 = -0.2.
Against CG4619 [DRSC02764], the entry reads z-score, replicate 1 = -0.2; z-score, replicate 2 = -0.6.
With knock-down of sit (stuck in traffic) [DRSC15760] the results were z-score, replicate 1 = -0.1; z-score, replicate 2 = 0.3.
With knock-down of Slik (Sterile20-like kinase) [DRSC04471], the record shows z-score, replicate 1 = -0.2; z-score, replicate 2 = 0.1.
Tsp42Ec (Tetraspanin 42Ec) [DRSC06192] showed z-score, replicate 1 = -0.3; z-score, replicate 2 = -0.3.
Mdh1 (retired record) [DRSC02846] gave z-score, replicate 1 = -0.2; z-score, replicate 2 = -0.3.
With knock-down of kat-60L1 (katanin p60-like 1) [DRSC12184], the record shows z-score, replicate 1 = -0.4; z-score, replicate 2 = -0.6.
For CG8132 [DRSC16383] the deposit lists z-score, replicate 1 = -0.4; z-score, replicate 2 = 0.
cyr (cypher) [DRSC18017] scored z-score, replicate 1 = -0.2; z-score, replicate 2 = -0.1.
cyr (cypher) [DRSC18018] scored z-score, replicate 1 = -0.3; z-score, replicate 2 = -0.5.
After knock-down of cyr (cypher) [DRSC18021], the record shows z-score, replicate 1 = -0.1; z-score, replicate 2 = -0.7.
For Cyp6a14 (retired record) [DRSC07376], the entry reads z-score, replicate 1 = -0.3; z-score, replicate 2 = -0.6.
With knock-down of CG13810 [DRSC08344], the record shows z-score, replicate 1 = -0.3; z-score, replicate 2 = -0.5.
With knock-down of SoYb [DRSC02901], the screen gave z-score, replicate 1 = -0.2; z-score, replicate 2 = -0.4.
Against CG7530 [DRSC16255] the deposit lists z-score, replicate 1 = -0.4; z-score, replicate 2 = -0.6.
CG10232 [DRSC14218] scored z-score, replicate 1 = -0.1; z-score, replicate 2 = -0.1.
Knock-down of E(spl)malpha-BFM (Enhancer of split malpha, Bearded family member) [DRSC16994] gave: z-score, replicate 1 = 0.2; z-score, replicate 2 = 0.
After knock-down of CG18764 [DRSC15391], the record shows z-score, replicate 1 = -0.1; z-score, replicate 2 = -0.2.
Against CG34032 (retired record) [DRSC09225], the entry reads z-score, replicate 1 = 0.2; z-score, replicate 2 = -0.2.

A stretch taken from the entries so far, as a working copy:
CR30029 (pseudo) [DRSC06724]: z-score, replicate 1 = -0.2; z-score, replicate 2 = -0.2
CG4619 [DRSC02764]: z-score, replicate 1 = -0.2; z-score, replicate 2 = -0.6
